These are yes or no findings as the source states them, for the method shown. In cells and extracts the contact can be indirect. Some binding calls cover weakened binding; strength is not graded here.

Protein sequences, listed by entry. Tags and fused reporters are not part of them.
UniProt Q92731: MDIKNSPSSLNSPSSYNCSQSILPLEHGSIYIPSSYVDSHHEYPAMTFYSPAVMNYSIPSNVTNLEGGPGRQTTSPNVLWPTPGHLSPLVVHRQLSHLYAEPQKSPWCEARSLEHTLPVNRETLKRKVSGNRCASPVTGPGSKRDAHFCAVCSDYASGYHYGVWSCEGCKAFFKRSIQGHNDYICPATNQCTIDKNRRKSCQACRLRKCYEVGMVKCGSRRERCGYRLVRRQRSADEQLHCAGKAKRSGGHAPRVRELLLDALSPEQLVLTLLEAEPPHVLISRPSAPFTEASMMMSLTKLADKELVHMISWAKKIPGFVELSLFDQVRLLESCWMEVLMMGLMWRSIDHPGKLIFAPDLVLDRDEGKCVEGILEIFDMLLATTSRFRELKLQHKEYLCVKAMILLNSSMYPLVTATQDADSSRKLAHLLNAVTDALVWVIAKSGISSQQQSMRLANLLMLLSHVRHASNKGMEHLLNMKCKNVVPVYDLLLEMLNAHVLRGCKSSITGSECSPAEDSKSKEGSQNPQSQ
UniProt Q04206: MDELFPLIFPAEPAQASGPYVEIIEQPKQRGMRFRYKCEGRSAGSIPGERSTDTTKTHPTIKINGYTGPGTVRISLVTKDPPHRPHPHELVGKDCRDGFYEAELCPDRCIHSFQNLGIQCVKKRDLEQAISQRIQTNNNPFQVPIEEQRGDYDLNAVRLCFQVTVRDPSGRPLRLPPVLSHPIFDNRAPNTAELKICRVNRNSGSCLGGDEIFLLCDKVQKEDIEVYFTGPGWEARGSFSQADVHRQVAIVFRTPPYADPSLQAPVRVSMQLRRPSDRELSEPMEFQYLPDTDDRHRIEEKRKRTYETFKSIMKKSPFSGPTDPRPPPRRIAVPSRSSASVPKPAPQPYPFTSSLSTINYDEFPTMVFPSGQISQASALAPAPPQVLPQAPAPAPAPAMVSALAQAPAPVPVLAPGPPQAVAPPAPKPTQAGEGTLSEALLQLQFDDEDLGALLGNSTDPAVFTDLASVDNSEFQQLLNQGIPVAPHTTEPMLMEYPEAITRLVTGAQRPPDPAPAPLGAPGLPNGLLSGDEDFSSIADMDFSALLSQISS

Data on 1 substance can be found in paper PMC5564823.

One experiment concerns the target ERβ-FLAG (UniProt Q92731). Nature of the experiment: co-IP; ES2-ERβ-FLAG cell lysates immunoprecipitated with IgG or FLAG antibody, Western blotting with p65 antibody. (A western blot detects proteins with antibodies after separation by electrophoresis.)
The target in another experiment is ERβ-GST fusion protein (UniProt Q92731). Nature of the experiment: pull-down; ES2 cell lysates (NP40/Triton X-100 lysis buffer: 50 mM Tris-HCl pH 7.5, 0.2% Triton X-100, 0.3% Nonidet P-40, 150 mM NaCl) incubated with GST or ERβ-GST fusion proteins; bound p65 detected by Western blotting; only the target purified.

Turning to “p65 subunit of NF-κB (from UniProt Q04206 1-551)”, the binding result in the experiment with ERβ-FLAG and with ERβ-GST fusion protein was “binds” each time.
